Measurements published in patent US20120035180A1, “PHARMACEUTICAL COMPOSITION FOR TREATING CANCER COMPRISING CHLORIN E6-FOLIC ACID CONJUGATE COMPOUND AND CHITOSAN” (priority 2009, published 2012).

System: sarcoma M-1
Assay: Necrotic area in sarcoma M-1 after PDT
Assay type: in vivo, rats
Settings: 5.0 mg/kg, PDT 100 J/cm^2 at 4 hours, mean of 25 slides
Method: After fixation, transverse sections of the tumor nodule in its highest diameter were made, and pictures were taken by a camera connected to a computer.
For quantitative assessment of necroses formed after PDT, computer analysis of color tints of histo-topographic tumor slides was performed using a special program.
The program included an algorithm of blue color identification (Evans blue), which stained viable areas of the tumor. Tumor areas killed from direct cytotoxic effect or due to structural-functional disorders of microcirculation were not stained in blue. The ratio of all non-stained dots to the total amount of dots in the fence of the tumor slide was considered to be the destruction efficiency.
For this purpose, a laser medical instrument “ ? 680-2000” (BIOSPEC, Moscow) was used to perform the exposure at a wavelength of 670 nm in a dose of 100 J/cm^2. The power density was 0.51 W/cm^2, the output power was 0.4 W, and the spot light diameter was 1 cm. Time of exposure was […]. Monitoring over radiating power was conducted by a universal power meter included in the laser device “ ? 680-2000”.

[γ-(6-aminohexyl)folic acid]-chlorin e6 [chlorin e6 conjugate]
Slide area of sarcoma M-1: 2.255 cm^2
